Binding data for 2 substances are collected here from paper PMC9937529, “Mechanism of activation and biased signaling in complement receptor C5aR1” (Cell Research, 2023).

Amino acid sequences for entries named in this document (tags omitted).
UniProt Q9P296: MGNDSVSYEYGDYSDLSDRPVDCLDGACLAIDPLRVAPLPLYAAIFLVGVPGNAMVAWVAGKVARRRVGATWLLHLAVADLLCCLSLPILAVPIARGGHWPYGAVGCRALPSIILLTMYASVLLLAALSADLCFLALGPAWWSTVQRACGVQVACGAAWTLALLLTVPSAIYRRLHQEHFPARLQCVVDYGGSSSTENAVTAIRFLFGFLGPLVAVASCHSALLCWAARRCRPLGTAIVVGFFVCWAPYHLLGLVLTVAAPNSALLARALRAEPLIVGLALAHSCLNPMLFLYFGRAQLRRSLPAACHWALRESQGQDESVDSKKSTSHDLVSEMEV
UniProt P21730: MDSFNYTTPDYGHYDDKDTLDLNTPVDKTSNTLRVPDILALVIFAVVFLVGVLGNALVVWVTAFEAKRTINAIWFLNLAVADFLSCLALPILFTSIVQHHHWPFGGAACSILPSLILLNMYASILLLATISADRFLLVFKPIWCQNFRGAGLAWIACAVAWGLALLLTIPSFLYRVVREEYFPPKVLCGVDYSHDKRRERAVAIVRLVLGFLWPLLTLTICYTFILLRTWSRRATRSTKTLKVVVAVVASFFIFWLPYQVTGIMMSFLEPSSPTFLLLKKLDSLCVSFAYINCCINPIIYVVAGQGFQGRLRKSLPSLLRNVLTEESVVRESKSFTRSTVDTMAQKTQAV
UniProt P32121: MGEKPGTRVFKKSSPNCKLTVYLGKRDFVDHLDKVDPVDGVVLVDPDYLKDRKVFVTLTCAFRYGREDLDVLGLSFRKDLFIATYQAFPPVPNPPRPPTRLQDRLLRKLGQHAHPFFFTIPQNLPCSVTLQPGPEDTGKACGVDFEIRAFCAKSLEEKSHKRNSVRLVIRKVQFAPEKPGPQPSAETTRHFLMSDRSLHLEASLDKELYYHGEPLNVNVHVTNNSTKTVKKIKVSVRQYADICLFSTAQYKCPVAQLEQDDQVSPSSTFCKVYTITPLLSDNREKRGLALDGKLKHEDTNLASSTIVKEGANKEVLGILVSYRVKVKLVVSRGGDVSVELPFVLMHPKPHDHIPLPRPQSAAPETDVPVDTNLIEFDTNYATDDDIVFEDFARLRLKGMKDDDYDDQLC

The target of one test is C5aR2-mVenus (UniProt Q9P296). Kind of test: FRET or BRET; HEK293 cells transiently transfected with C5aR1-Nluc and mVenus-β-arrestin 2 or C5aR2-mVenus and Nluc-β-arrestin 2; coelenterazine h; agonist with or without antagonist for 10 min; ligand-induced BRET ratio. Background: In BRET a luciferase serves as donor, and the signal depends on an acceptor being close.
The target in a further test is C5aR1-Nluc (human) (UniProt P21730). Described as above.

These are yes or no findings as the source states them, for the method shown. Binding seen in cells or lysates may run through a third protein. Some binding calls cover weakened binding; strength is not graded here.

Turning to “Nluc-β-arrestin 2 (from UniProt P32121 1-409)”, the binding result with C5aR2-mVenus was “binds”.
“mVenus-β-arrestin 2 (from UniProt P32121 1-409)”: in the test with C5aR1-Nluc (human), the binding entry is given as “binds”.
